Measurements from article PMC11761031.
Results are given in words; binding and its absence hold for the method and conditions named. In cells and extracts the contact can be indirect. A yes stands for co-enrichment or nearness to the bait. Other partners may have been found. Values belong to the binder of their own block, whether it stands above or below them.

Target: HA-tagged SIN3 (Drosophila melanogaster)
Experiment: affinity purification with mass spectrometry; HA-tagged SIN3 immunoprecipitated from Drosophila S2 cells treated with PBS or 2-DG; interactors by TMT multiplexing with LC-MS/MS (RTS, SPS); enrichment against a no tag control; five biological replicates

binding: binds
B1: MRG15 (protein, UniProt Q9Y0I1 1-424)
chain: MGEVKPAKVENYSTGTDANTLFVDGERVLCFHGPLIYEAKVLKTKPDATPVEYYIHYAGWSKNWDEWVPENRVLKYNDDNVKRRQELARQCGERSKKDNKKGSAKAKKMEQMRNESRASTPSKDSNTSQSTASSTPTTSAGPGSKSEAGSTGTTTTNSTANSTTSRAHRKSTQSTPSTARPGTPSDKKEDPAAAETTEEEGPVAPKKKRMSEQRPSLTGSDVAEKPLPPTTTPSTPTTEPAPCVESEEAYAAKVEVKIKIPDELKHYLTDDWYAVVREHKLLELPAKVTVQQISEQYLAHKKSVKSTSASKEVAINDVLDGIVEYFNVMLGSQLLYKFERTQYADVMQKHPDTPLSELYGSFHLLRLFVRLGSMLSYSALDQQSMQNLLTHVQDFLKFLVKNSSIFFSMSNFINVDPEYVRNAQ

binding: binds
B2: Negative elongation factor A (NELF-A) (protein, UniProt Q86NP2 1-1251)
chain: MANVRDSDTSLWLHNKLGTSNDSWINGSICSQLNKEVLRNIKECFPDLQTQVKLKLLLSFLHIPRRLVEEWKAELEEVIEVAGLDSELWVSMLAETMKTFPATSSLNTEISDYEDTRPIFIDMVNDLRKLVTKHSDLGMLPLECQYLNKNALISVVGQQPAPVKHFTLKRKPKSAQLRTELLHKSADAQSSLKKASAPTIPLRSRGMPRKMTDTTPLKGIPSRMPTTGFRSATVPGNAAQRPNLSRTPAGRKDGGIKLIEFTEQPLGYAAAKKRKREQQLEEQQKKQEQKQQQAAAAAAAAATAAASNAGDSSPTDAATASGGETPVTPTSANNSFEIKMEPQQLNQSAGSLEEPQDDEMSGKANMECDIETPEYATATLDFAQATSTSVADGQPGKPAVETKLKTPRTPKSAAKLNNNNNNNNNNSFNHTPKRIKQEIEIKSEEIIVPASIKLEKIETSPSTQRVSIQQQPPSLVQRTPHLLIRSSPQKRQNNGATTSAGTTTTTVGNTTIKMEKLDIKPMIRATGVSPSTSAGTTTTLLTPQQLRQAANPLANLPNNISVKITSAKAKAAAAAAATSSGSQTQSQQPQTLQVQQAPQQSHPPLLINSSTPVILASSPSAQRAKALALPSSSTSATTTTTIPSQAIKTMPLSQLKTATNSGPVIISQTIIQPAKRAQQQAGTSSAAAASQQQQQQQSQQQLLHQQIQQQTQQQAQLPQQPQQQQTQYILATPQQQPQQIQQQQQQQQPILPTLTSFSHSRPMPQTTTLYQATTPSGSGQTPTKILLKTSGSSSVVMTPLRQAQPQQATAVVSSNPPPLVATSAAVVSPGQTTLNIQNVQLPNRPVTIQPASQAAQQQHMQAQLQQQQPHPQHTIVANTTATQQPKLSQVLMQPTAAVGTSGVSALNVSPTSGKNKTIILTQKGVILRNIGGDMYQQIPISNVGNMQGLGGTTLMTTTAGPPSLVKTTPSSGVQLQQQQSGKQILPTLIPTSSLGGQHVIVQQQQPTNVIGNSQQQTIIRPVMTNVGGGLTTLPQGLTLIQRPGQQPQLVQVQAAPGSTQRTIITQSNTAAAASQQQPRQQQQQILVQHKPAPTLQQRLVTSTTSGGQGQQGNPNAGLPRTVQVQVQAQQQQQPQQQQATQQQSQQAPQRRGLSLSNEHVHKAHEMFRKANRVSRPDKALILGFMAGLRENPRPNNENVLVIKLGETEEKVQQDNGHTALCLVESHIRLDYNTGEWKTFQNYRLQDQSAAS
